The values that follow come from paper PMC4333378, “Human PrimPol is a highly error-prone polymerase regulated by single-stranded DNA binding proteins” (Nucleic Acids Research, 2014).

By UniProt entry, the sequences of proteins in these tests, tags left out.
UniProt P15927: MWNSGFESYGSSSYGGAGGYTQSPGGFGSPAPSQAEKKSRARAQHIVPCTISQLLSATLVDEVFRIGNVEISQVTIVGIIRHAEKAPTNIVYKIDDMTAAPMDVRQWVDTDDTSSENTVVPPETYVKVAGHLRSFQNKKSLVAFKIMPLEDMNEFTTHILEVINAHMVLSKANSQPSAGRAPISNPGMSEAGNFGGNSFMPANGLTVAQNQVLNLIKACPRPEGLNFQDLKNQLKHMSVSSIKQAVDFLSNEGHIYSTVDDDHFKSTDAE

This assay deals with T1, PrimPol^FlagStrep (Strep-tagged human PrimPol) (human) (UniProt Q96LW4).
T1 sequence: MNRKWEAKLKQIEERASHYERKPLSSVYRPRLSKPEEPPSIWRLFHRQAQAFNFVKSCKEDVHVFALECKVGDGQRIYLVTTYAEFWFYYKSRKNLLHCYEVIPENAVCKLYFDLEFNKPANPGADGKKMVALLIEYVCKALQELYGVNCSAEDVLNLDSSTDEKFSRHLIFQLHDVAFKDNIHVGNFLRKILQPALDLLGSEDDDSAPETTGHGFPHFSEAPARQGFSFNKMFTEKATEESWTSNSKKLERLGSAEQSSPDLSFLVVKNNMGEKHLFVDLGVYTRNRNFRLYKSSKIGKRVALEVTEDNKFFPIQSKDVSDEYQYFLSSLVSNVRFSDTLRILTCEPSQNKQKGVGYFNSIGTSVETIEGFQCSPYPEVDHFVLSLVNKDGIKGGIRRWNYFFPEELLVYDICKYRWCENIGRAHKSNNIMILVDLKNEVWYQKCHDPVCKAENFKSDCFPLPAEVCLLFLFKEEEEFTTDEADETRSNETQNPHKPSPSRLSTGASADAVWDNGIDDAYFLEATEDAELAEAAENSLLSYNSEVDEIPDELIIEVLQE
Briefly: affinity purification with mass spectrometry; large-scale Strep-tactin affinity purification of Strep-tagged PrimPol from doxycycline-induced against non-induced Flp-In T-REx-293 lysate (150 mM NaCl, 30 mM Tris pH 7.4, 0.5% NP-40), desthiobiotin elution, gel slices, LC-MS/MS.

These are yes or no findings as the source states them, for the method shown. Binding seen in cells or lysates may run through a third protein. A yes stands for co-enrichment or nearness to the bait. Other partners may have been found. Sequences can lack the tags named with a protein.

Regarding “RPA32 (replication protein A subunit 2) (from UniProt P15927 1-270)”, the binding result is “binds”.

B1: mitochondrial single-stranded DNA binding protein (mtSSB) (protein, UniProt Q04837 17-148)
chain: ESETTTSLVLERSLNRVHLLGRVGQDPVLRQVEGKNPVTIFSLATNEMWRSGDSEVYQLGDVSQKTTWHRISVFRPGLRDVAYQYVKKGSRIYLEGKIDYGEYMDKNNVRRQATTIIADNIIFLSDQTKEKE
With B1, the binding result is “binds”.
